Reference: patent publication US12226383B1, “Compositions containing short-chain fatty acid, methods of use, and methods of making thereof” (Velocity Life Sciences, LLC, priority 2024, dated 2025)

Tests used:
[1] = Organoleptic study: taste assessment on 200 mm visual analog scale; design: species or system human; conditions: N=10 subjects; 200 mg sample; 200 mm VAS
[2] = Organoleptic study: smell assessment on 200 mm visual analog scale; design: species or system human; conditions: N=10 subjects; 200 mg sample; 200 mm VAS

L-lysine butyrate
Taste rating, Max [1]: 108 | Taste rating, Mean [1]: 101.50 | Taste rating, Median [1]: 101.00 | Taste rating, Min [1]: 93 | Smell rating, Max [2]: 115 | Smell rating, Mean [2]: 105.10 | Smell rating, Median [2]: 102.5 | Smell rating, Min [2]: 98
